Measurements from US20260007652A1, “Selective Modulators of AhR-Regulated Transcription and Method for Using Such Modulators to Treat Cancer” (OREGON STATE UNIVERSITY, priority 2022, published 2026).
For at least one compound, name, drawing or mass did not settle the structure.

Key:
Hepa-1 cells [1] = assay: Cell viability, Hepa-1 cells; type: cell-based, mouse; settings: 48-hour exposure, sub-micromolar concentrations
Hepa-1 cells [2] = assay: Colony forming assay, Hepa-1 cells; type: cell-based, mouse; settings: 10-50 nM; AhR-dependent
Hepatoma (mouse) cells = assay: Annexin-V apoptosis staining, Hepatoma (mouse) cells; type: cell-based; settings: 100 nM and 500 nM, 72 hours; Hepa-1
HepG2 cells = assay: Annexin-V staining, HepG2 cells; type: cell-based, human; settings: 2 μM, 48-hour treatment; vector controls
MDA-MB-468 cells [3] = assay: Soft-agar clonogenicity assay, MDA-MB-468 cells; type: cell-based, human; settings: 10 nM; AhR-dependent
HCC1187 cells = assay: Annexin-V apoptosis assay, HCC1187 cells; type: cell-based, human; settings: 1 μM, 48 hours
MDA-MB-468 cells [4] = assay: Cell cycle analysis, MDA-MB-468 cells; type: cell-based, human; settings: 100 nM, 24 hour; AhR-dependent
MDA-MB-468 cells [5] = assay: Colony forming assay, MDA-MB-468 cells; type: cell-based, human; settings: 10 nM, long-term exposure
cancer cell line = assay: Cell viability of combinations of AhR ligand and synergizer (FIGS. 51, 52); type: cell-based; settings: alone (FIG. 52)
Protocol: FIG. 51 provides data from cancer cell line trials using 11-Cl-BBQ alone, Evoxine alone, Citropten alone, and combinations comprising 11-Cl-BBQ and Citropten and 11-Cl-BBQ and Evoxine. […] The decrease in cell viability was more than additive. Specifically, for Evoxine in combination with Analog 523, the reduction in cell viability was: 31% at 1 μM; 41% at 3 μM; and 42% at 10 μM. For Citropten in combination with Analog 523, the reduction in cell viability was: 16% at 1 μM; 34% at 3 μM; and 43% at 10

MDA-MB-468 cells [6] = assay: Annexin-V apoptosis assay, MDA-MB-468 cells; type: cell-based, human; settings: AhR WT versus AhR KO; 48 hours
Protocol: FIGS. 72A-72C presents the characterization of combinations on TNBC cell viability and cell death. Quantitation of Annexin-V staining of MDA-MB-468 cells treated with either 10 μM evoxine, 10 μM citropten, 0.25 μM 11-Cl-BBQ, or corresponding combinations for 72 hours (A and B, respectively). Quantifications represent averages of three independent experiments. C) Colony forming assay of MDA-MB-468 AhR-expressing and AhR KO cells treated with 100 nM Evoxine, 500 nM Citropten, […] 11-Cl-BBQ, or combinations of each compound with 11-Cl-BBQ.
Annexin-V staining was performed 48 hours post-treatment by harvesting cells (floating and attached) with trypsin, followed by addition of serum-containing media, and two washes with ice-cold PBS. Cells were stained with Annexin-V-PerCP conjugates (eBioscience, Waltham, MA, USA) for 15 minutes on ice before washing out residual stain and resuspending in 300 μL of binding buffer. 10,000 events were collected per sample. Data was acquired with a CytoFLEX S flow cytometer (Beckman Coulter, Brea, CA), and analyzed using the CytExpert software (Beckman Coulter).

HCC70 cells = assay: Annexin-V apoptosis assay, HCC70 cells; type: cell-based, human; settings: 1 μM, 48 hours
MDA-MB-468 cells [7] = assay: Spheroid viability assay, MDA-MB-468 cells; type: cell-based, human; settings: 72 hours

O=c1c2cccc3cccc(c32)c2nc3ccccc3n12 [Analog 523, 7H-benzimidazo[2,1-a]benzo[de]isoquinolin-7-one]
cell viability of Hepa-1 cells (Hepa-1 cells [1]): potently inhibited cell viability | colony formation (Hepa-1 cells [2]): strongly inhibit colony formation | apoptotic response (Hepatoma (mouse) cells): robust apoptotic response | apoptotic cells (Annexin-V staining) (HepG2 cells): strong AhR-dependent induction of cell death | 3D colony formation (MDA-MB-468 cells [3]): potently suppressed 3D colony formation | apoptosis (Annexin-V) (HCC1187 cells): strongly induced apoptosis | cell cycle effect (MDA-MB-468 cells [4]): S/G2 phase arrest | clonogenicity of AhR-expressing cells (MDA-MB-468 cells [5]): completely inhibit the clonogenicity | cell viability, mono-applications (cancer cell line): largely ineffective in reducing cell viability | apoptosis (Annexin-V staining) (MDA-MB-468 cells [6]): potent AhR-dependent induction of apoptosis | apoptosis (Annexin-V) (HCC70 cells): strongly induced apoptosis | spheroid growth (viability assay) (MDA-MB-468 cells [7]): strong, AhR-dependent growth inhibition
